# Laboratory results taken from PubChem BioAssay AID720697 (Broad Institute, 2013).
# Inconclusive means that the source gave no clear call. Such entries were picked first, then a sample of the others. The source made the active and inactive calls.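 Rule for the calls: active = signal loss with fitted half-maximal concentration at or below twice the top valid tested dose in every test run; inconclusive = runs disagree, flat 30 to 70% signal loss, or poor fit; inactive = all runs flat, opposite direction, or potency beyond limit.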
# Test: general mammalian cell viability loss – inhibitor set, cherry-pick, set 2, cytotoxicity control for miR-122 modulator project, dose response (AID 720697);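 note: 0% = median of neutral control wells and -100% = MG132 positive control wells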
# Conditions: HEK293T viability, CellTiter-Glo luminescence, 48 h; at 26 µM (top of the series) unless noted
row,SMILES,"activity change, negative = cytotoxicity"
1,C[C@@H]1CN([C@@H](C)CO)S(=O)(=O)c2ccc(-c3ccccc3F)cc2O[C@@H]1CN(C)Cc1cccnc1,inconclusive: 111%
2,c1ccc(CCNc2nnnn2-c2ccccc2)cc1,inconclusive: 32.3%
3,COC(=O)C[C@H]1CC[C@H]2[C@H](COc3ccc(NC(=O)c4cscn4)cc3C(=O)N2C)O1,inconclusive: -31.4%
4,COC(=O)C[C@H]1CC[C@@H]2[C@@H](COc3ccc(NC(=O)Nc4ccc(Cl)cc4)cc3C(=O)N2C)O1,inactive: 128%
5,CNC(=O)C[C@H]1CC[C@@H]2[C@H](COc3ccc(NC(=O)Nc4ccc(F)c(F)c4)cc3C(=O)N2C)O1,inconclusive: -34.4%
6,CC(=O)N1[C@H](CO)[C@@H](c2ccccc2)[C@H]1CN(C)C(=O)CN1CCOCC1,inactive: 36.2%
